Data as given in the supplement of paper PMC11732987, “Enantioselective OTUD7B fragment discovery through chemoproteomics screening and high-throughput optimisation” (Communications Chemistry, 2025).
The other results are listed elsewhere or left out. The data scatter; read single values as rough.

By UniProt entry, the sequences of proteins in these tests, tags left out. Where a name states a change or a piece, a line headed by the entry shows the natural chain unless it says otherwise.
UniProt P82094: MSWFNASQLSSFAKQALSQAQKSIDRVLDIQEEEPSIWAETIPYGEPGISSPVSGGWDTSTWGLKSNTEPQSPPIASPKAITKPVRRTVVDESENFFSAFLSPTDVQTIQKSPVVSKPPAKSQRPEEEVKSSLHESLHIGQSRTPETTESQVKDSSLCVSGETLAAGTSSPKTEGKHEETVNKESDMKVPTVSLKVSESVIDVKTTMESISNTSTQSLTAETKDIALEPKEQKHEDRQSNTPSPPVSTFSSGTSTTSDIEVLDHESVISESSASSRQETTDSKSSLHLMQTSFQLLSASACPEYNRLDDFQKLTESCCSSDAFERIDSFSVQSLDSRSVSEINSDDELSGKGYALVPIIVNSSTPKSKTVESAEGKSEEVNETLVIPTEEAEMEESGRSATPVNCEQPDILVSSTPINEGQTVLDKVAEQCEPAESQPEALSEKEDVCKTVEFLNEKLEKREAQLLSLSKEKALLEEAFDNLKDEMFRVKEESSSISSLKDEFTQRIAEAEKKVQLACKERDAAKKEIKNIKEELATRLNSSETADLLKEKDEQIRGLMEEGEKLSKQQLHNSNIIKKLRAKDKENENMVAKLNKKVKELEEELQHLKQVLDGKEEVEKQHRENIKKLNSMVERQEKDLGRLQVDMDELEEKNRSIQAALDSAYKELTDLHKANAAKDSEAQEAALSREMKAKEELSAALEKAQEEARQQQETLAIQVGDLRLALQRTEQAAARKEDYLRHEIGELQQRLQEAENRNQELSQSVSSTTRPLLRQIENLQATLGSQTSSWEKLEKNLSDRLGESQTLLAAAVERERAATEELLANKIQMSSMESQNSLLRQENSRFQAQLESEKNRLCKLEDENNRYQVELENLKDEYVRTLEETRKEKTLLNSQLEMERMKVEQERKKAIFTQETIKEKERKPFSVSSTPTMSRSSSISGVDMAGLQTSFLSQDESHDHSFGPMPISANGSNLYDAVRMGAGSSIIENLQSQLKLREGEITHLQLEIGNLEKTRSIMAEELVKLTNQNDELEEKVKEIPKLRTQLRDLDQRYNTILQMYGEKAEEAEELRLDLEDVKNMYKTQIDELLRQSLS
UniProt Q8TBR7: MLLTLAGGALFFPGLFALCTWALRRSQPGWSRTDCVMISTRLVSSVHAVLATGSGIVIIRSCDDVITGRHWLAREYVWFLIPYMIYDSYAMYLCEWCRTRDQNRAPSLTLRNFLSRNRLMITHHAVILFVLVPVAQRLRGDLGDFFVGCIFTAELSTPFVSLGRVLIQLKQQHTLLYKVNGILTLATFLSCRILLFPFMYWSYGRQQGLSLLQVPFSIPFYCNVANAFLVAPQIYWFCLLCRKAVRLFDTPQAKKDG
UniProt Q9ULW0: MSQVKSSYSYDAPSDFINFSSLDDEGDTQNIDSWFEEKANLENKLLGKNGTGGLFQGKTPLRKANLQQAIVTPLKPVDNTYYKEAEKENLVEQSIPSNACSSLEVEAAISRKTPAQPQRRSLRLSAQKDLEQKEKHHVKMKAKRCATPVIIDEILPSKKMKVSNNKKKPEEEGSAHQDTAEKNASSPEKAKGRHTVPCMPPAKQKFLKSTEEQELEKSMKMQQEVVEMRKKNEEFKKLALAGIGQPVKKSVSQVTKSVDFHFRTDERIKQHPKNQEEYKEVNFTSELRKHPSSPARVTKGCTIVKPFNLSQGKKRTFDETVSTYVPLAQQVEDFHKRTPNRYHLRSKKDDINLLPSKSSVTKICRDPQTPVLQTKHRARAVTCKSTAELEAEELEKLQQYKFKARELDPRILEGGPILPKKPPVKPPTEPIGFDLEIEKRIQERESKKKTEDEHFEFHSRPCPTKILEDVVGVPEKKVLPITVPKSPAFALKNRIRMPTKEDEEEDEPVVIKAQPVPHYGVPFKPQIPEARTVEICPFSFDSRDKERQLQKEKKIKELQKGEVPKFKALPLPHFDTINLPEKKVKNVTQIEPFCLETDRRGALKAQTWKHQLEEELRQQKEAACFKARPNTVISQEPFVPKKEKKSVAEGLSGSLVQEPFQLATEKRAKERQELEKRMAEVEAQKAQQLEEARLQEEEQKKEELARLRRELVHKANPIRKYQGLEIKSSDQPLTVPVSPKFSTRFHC
UniProt Q08117: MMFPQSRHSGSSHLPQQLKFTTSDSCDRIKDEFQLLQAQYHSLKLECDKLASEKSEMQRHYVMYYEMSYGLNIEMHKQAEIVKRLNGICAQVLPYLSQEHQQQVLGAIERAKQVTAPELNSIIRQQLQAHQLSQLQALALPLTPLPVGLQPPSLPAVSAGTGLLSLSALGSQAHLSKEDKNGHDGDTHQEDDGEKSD
UniProt Q96DC7: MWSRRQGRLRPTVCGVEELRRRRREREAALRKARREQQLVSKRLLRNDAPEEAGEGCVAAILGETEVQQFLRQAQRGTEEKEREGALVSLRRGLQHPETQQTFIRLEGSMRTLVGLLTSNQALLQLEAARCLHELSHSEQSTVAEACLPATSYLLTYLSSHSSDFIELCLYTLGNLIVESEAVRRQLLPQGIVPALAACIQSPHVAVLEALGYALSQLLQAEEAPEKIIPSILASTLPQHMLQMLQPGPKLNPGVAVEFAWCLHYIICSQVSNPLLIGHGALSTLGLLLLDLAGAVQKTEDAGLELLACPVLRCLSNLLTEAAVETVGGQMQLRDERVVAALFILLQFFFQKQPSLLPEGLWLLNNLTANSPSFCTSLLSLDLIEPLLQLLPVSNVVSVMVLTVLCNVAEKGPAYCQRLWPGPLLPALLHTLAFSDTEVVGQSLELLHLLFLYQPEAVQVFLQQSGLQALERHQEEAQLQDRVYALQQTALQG
UniProt P50616: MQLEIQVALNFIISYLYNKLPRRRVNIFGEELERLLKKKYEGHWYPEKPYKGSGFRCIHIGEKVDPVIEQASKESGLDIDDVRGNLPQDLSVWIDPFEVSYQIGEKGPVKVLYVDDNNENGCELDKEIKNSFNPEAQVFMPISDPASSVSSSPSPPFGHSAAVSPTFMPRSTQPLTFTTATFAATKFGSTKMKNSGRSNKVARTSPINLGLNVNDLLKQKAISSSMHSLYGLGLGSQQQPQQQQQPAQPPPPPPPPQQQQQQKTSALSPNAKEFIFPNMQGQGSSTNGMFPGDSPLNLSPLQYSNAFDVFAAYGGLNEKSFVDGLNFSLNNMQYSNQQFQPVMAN
UniProt Q4KMQ1: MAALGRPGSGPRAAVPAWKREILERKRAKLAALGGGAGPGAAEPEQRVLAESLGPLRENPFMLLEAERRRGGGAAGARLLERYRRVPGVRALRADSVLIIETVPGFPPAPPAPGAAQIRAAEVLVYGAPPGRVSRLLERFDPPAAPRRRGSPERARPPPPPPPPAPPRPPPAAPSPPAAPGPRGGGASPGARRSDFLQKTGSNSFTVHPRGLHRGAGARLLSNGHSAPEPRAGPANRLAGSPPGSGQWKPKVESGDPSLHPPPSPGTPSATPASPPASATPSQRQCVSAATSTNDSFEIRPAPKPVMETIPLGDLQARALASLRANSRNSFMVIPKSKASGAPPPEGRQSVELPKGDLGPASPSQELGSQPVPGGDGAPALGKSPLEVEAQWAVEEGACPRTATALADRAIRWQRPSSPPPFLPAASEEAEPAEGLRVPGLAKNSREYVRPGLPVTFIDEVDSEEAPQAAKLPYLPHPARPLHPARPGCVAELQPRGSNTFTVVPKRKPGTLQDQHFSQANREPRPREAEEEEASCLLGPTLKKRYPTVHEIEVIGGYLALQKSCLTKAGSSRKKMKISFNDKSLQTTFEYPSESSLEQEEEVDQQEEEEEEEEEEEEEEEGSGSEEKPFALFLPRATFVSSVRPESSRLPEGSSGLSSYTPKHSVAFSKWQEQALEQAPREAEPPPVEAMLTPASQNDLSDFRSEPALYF
UniProt Q9Y490: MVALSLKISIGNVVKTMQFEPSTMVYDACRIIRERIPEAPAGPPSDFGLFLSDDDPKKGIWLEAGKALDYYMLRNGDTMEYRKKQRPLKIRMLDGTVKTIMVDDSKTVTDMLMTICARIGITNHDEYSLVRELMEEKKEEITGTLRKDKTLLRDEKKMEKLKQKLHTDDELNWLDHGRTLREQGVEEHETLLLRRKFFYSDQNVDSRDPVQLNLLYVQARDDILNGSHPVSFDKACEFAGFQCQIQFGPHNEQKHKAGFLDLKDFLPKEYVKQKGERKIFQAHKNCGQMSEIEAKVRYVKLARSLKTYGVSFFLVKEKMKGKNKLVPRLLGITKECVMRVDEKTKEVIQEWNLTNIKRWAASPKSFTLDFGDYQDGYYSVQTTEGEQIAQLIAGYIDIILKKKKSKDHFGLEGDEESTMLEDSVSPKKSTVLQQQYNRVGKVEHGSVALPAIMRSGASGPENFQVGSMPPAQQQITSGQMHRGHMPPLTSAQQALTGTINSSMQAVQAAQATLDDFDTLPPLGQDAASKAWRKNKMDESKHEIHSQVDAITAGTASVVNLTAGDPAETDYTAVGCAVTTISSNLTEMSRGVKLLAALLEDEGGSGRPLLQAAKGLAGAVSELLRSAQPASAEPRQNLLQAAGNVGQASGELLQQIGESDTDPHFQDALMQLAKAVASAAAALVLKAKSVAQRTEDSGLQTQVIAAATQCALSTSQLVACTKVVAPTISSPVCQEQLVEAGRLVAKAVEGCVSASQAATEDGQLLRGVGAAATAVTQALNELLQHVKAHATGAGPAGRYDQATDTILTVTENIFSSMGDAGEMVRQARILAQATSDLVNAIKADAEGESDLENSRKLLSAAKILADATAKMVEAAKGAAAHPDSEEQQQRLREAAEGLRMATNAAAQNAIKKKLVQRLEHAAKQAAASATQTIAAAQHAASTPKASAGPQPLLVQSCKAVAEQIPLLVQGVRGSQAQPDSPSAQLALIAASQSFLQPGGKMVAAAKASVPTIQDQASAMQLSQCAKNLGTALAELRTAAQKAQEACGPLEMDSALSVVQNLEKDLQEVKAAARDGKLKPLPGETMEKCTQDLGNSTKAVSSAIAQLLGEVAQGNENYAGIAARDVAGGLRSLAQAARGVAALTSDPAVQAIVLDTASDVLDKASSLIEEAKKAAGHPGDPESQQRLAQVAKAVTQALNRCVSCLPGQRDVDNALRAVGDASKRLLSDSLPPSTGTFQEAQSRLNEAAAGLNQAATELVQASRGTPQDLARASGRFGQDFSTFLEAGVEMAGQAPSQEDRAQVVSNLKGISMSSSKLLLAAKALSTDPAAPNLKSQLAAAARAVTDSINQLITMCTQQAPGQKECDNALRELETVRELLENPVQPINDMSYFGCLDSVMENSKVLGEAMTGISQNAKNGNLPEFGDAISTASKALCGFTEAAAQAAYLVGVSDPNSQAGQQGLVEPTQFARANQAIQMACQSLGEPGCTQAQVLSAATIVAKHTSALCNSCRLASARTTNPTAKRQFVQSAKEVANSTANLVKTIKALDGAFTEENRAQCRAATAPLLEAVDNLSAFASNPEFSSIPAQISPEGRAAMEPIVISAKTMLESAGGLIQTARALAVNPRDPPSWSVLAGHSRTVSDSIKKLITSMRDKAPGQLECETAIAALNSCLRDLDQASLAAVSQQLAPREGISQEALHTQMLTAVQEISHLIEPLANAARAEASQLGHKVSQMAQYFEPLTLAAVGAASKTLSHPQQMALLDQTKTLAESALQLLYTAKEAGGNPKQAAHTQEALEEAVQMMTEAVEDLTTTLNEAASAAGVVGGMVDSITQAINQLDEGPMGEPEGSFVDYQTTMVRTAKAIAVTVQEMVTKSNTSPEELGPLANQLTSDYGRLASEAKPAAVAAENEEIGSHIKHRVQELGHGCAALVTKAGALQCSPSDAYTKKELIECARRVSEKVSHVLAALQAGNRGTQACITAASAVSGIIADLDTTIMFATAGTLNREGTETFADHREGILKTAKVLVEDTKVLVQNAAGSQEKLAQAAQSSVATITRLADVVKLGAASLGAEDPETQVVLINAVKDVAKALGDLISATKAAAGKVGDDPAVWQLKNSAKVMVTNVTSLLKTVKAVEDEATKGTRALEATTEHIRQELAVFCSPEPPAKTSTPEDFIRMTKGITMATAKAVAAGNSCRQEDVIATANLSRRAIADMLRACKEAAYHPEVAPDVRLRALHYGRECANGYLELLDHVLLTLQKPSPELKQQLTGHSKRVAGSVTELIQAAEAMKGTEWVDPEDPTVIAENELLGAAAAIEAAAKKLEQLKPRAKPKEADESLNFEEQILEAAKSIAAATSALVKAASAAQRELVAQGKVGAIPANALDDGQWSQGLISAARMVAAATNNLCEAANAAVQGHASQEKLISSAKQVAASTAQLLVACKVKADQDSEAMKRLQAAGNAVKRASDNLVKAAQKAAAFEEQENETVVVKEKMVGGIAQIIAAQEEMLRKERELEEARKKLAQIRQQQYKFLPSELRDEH

What was measured:
[1] = compound: ClCC(=O)N[C@@H]1CCCc2ccccc12; assay: log2 mean competition ratio of IA-DTB cysteine labelling (DMSO/compound) (log2 ratio); higher = stronger cysteine engagement by compound; details: treatment time: 4 h, cell line lysate: HEK293T
Method: (§1)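 IA-DTB competitive cysteine chemoproteomics in HEK293T RIPA lysate. Lysates were treated with compound 29 or 30 at 50 or 200 µM for 4 h, then IA-DTB (500 µM, 1 h), trypsin-digested, NeutrAvidin-enriched and analysed by diaPASEF. Competition ratio = intensity DMSO / intensity compound (n=4 treated, n=64 DMSO); binding: mean log2 CR ≥ 1 and p ≤ 0.05 plus QC filters. Target is the cysteine site.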

[2] = compound: ClCC(=O)N[C@H]1CCCc2ccccc12; assay: as above; details: treatment time: 4 h, cell line lysate: HEK293T
Method: as §1

Target | log2 mean competition ratio ([1]; 50 µM) | log2 mean competition ratio ([1]; 200 µM) | log2 mean competition ratio ([2]; 50 µM) | log2 mean competition ratio ([2]; 200 µM)
TMF1 C158 (UniProt P82094) | -0.538 | -0.264 | 0.223 | -0.192
TMEM45A C255 | 0.0368 | 0.0333 | -0.709 | 0.193
TLCD3A C62 (UniProt Q8TBR7) | -0.131 | 0.534 | -0.337 | 0.233
TRIM33 C276 | -0.119 | -0.374 | 0.313 | -0.967
TNKS1BP1 C669 (UniProt Q9C0C2) | -0.097 | 0.182 | 0.139 | 0.472
TPX2 C145 (UniProt Q9ULW0) | 0.438 | 0.0498 | -0.121 | 0.0499
TLE5 C26 (UniProt Q08117) | -0.0811 | 0.216 | 0.0076 | 0.209
TMCO6 C416 (UniProt Q96DC7) | 0.0742 | 0.101 | 0.0232 | 0.065
TNRC6C C1637 (UniProt Q9HCJ0) | 0.362 | 0.176 | 0.41 | 0.156
TOB1 C122 (UniProt P50616) | -0.406 | -0.0646 | -0.189 | -0.0873
TLE4 C529 (UniProt Q04727) | -0.14 | 0.511 | -0.28 | 0.101
TPRN C536 (UniProt Q4KMQ1) | -0.472 | 0.299 | -0.0991 | 0.0508
TLN2 C2197 (UniProt Q9Y4G6) | -0.169 | 0.199 | -0.0659 | 0.234
TNKS1BP1 C794 (UniProt Q9C0C2) | 0.211 | -0.154 | 0.733 | -0.0538
TINF2 C332 | -0.072 | -0.163 | 0.0385 | -0.0476
TLN1 C2161 (UniProt Q9Y490) | -0.375 | -0.312 | -0.118 | -0.266
TNRC18 C475 (UniProt O15417) | 0.127 | -0.169 | 0.251 | -0.0815
